About 3,700 (7%) of roughly 53,000 sequences were called active.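 The calls were made as follows: active = gene knockdowns whose robust z-score for IL-1 alpha signal is at least 2 or at most -2, so actives lie on both sides; inactive = the rest.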 This is one part of the list.

The test in a line: Components of the Cytosolic LPS Sensing Pathway: Gene Identification via Genome-wide siRNA Screen.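 Also: robust z of the log signal after scaling to non-targeting control siRNA wells of the plate.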 Particulars: RAW264.7 macrophages, IL-1a HTRF, actives lie on both sides, screened at 100 nM (by protocol), cells primed 5 h with Pam3CSK4 first. The procedure, abridged:
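RAW264.7 mouse macrophages reverse-transfected with single siRNAs (100 nM final) for 48h, primed with Pam3CSK4 for 5 hours, then transfected with LipidA for 24 hour. Supernatant IL-1a read by HTRF; values normalized to negative-control median, log-transformed robust z-scores.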
(In TR-FRET formats the signal depends on donor and acceptor labels being close together.)
As to GCACGCUCUUCAUUCGACATT against Catsperg2, the z-score was inactive: -0.941. With GGUUAAAAUUGGCUAAAUGTT against Sertm1 the figure was inactive: 1.5. GGUUUUCCCACUCUUUCACTT against Smg8: the z-score is inactive: 0.362. With GGGUGAGCAAGGUUGUAAUTT against Pdgfb the figure was inactive: 0.793; with GGAGUCUCCUUAUAUUAAUTT against Alcam, inactive: 0.896.

As to GGACAUCGCAUAUCAGCUATT against Alpl, the z-score is inactive: -1.62.

For the sequence GGUUUGCCCAGGAAUACAATT against Adprhl2, the z-score is inactive: 0.48. On to GGUAUGUGAUACAUCUAUUTT against Zfp52, for which the z-score is inactive: -1. Take CCAUCAAAACUUACCUCACTT against Rrp12: the z-score is inactive: 0.669.

For the sequence CCUUCCUAAUCUCUUGUUCTT against Rfc4, the z-score was inactive: 1.08.

With GGAUGUGCUGACCUUACAGTT against Gaa, the z-score is active: 2.35.

As for GGGUUUUACCAUGGAAUUCTT against Med18, the z-score is inactive: 0.793. In the case of GGCCCUCAACCUAAUUAUGTT against Sec24c, the z-score was inactive: 0.00831. Consider GGAAAUGCAUCCAUGCGGUTT against Arhgap26, for which the z-score was inactive: 0.404.

Turning to GUAAGUUGUUUGAGGAAAGTT against Defb3, the z-score is active: 2.08. Turning to GGAAGAGGCUAUUGCAUCGTT against Atrnl1, the z-score is inactive: -0.768.

On to GGAUGAUCAAAGCAUUGAUTT against Dmtf1, for which the z-score is inactive: -0.368.

As to GUGGCAGAAAACACUGCCATT against Coa3, the z-score was inactive: 0.854. For “CCUUUUACUCUAACGGACUTT against 4921507P07Rik”, the z-score was inactive: -0.875. As to GCAUUGAUGUGAUUGAACCTT against Plxnb3, the z-score was inactive: -0.108. As for GCCGUGUGGUAAUAGUGUCTT against Dhrs13, the z-score is inactive: 0.442. In the case of CGAUCUUAACUCAUUCUUUTT against Dbx2, the z-score was inactive: 0.532. As for GCACUUUGUAUGUCUAUCUTT against Tnfaip1, the figure is active: 2.28; as for GGAAGAUGUUUUCAGACUCTT against Polm, inactive: -1.29; as for GGCACUACUUCUAUCGUAGTT against Repin1, inactive: -0.608. As for GGUGUUCCAGGUUAAAAUCTT against Poglut2, the figure is inactive: -0.617; as for GCUGCUGGAAACUAGACUGTT against Cyp2b13, inactive: -1.71. With GGCCCUCUACAAUAUCGUCTT against Vac14 the figure was inactive: 1.03; with GGGUUCAAUAACCACAUCATT against Ttc13, active: -2.13.

Regarding GCCAGAACUGAUCGAAAUGTT against Myh2, the z-score was inactive: 0.314. For GGCAUCGUCUGCACAAAGATT against Fbn2, the z-score is inactive: -0.0226. As to GGCCUUGAUGGUGAAGAUGTT against Vstm4, the z-score is inactive: -1.79.

As for GGAAGGAUGCUUCCUUGGATT against Stmn3, the z-score was inactive: 0.00806. With GCUAAAGCAAUACAUAGUUTT against Nav2 the figure was inactive: -0.113; with GGGCAUGAAGAUCAAGAAGTT against Zfp608, inactive: -0.147. As for GCUUAUUGUUCAACCCAACTT against Dpp3, the z-score is inactive: -0.362. Turning to CGAUGUCUGAGUUCAACACTT against Gclc, the z-score was inactive: -0.124. On to GAACAAUGCAGAGACAAUUTT against Olfr176, for which the z-score is inactive: -0.441.

Regarding GCUCUUCAACGAUUGUGGGTT against Clcn4, the z-score is inactive: -0.481. On to CCACUAAAAUCUUACUGGATT against Scn7a, for which the z-score was inactive: 0.671. For GGCGAUUAUGGAAAAAUGUTT against Osbpl11, the z-score is inactive: -0.431. Take GGAUCUAGAACAGAAAAUGTT against Stat3: the z-score is inactive: -1.55.

For the sequence CCUUACAUGUUGACUACCCTT against Rnase13, the z-score is inactive: 0.403. With GGUAUUCGAAGCAUACAAUTT against Pdha2 the figure was active: 3.47; with GGAGGAAGAGAACUUCGUGTT against Fstl3, inactive: -0.648; with GCAGUAUGGCUACCUACCUTT against Mmp14, inactive: -1.08. Regarding GGGAAUACGUGUACUGAAGTT against Ttc17, the z-score is inactive: -0.338. As for GCAGAACUUGACCACUGCCTT against Defb2, the z-score was active: 2.58. Regarding CCGACUCUAACUGUGUCAGTT against Plekhn1, the z-score was inactive: -1.6. Regarding GGCCAACUGCCAAUUUGUGTT against Rnf10, the z-score was inactive: -1.4.

Regarding GGAAUCAAAAUCUUUGAUGTT against Dab1, the z-score was inactive: 0.021.

Take GGUGCUACAGAACGUAUGCTT against Fh1: the z-score was inactive: -0.764. Take GGAAUUCAGCUUAAAACUGTT against Ctsl: the z-score was inactive: -0.221. With CCCUUCAACUACAUGUUUUTT against Aicda, the z-score was inactive: -0.295. As for GCAAUCCAUACAAGCUGUATT against Olfr1134, the figure is inactive: 1.27; as for GCUGCGACAAUUCAAUAUCTT against Rdh8, inactive: -0.14. As for “GGGAAUUAUGGGCUUACCGTT against 4931414P19Rik”, the z-score was inactive: -0.414. On to GGAACUUGAUCCUCAAUUUTT against Tomm6, for which the z-score was inactive: 0.668. As to “GGAUUUGGAAAUAUUAGAGTT against E330021D16Rik”, the z-score is inactive: 1.47. As for GGGUUGGAUAGAAUAUUGUTT against Xk, the z-score is inactive: 1.4. As for GCUAGAUGUAGAUAGAUAATT against Plekhm3, the figure is inactive: -0.569; as for GGUUCAGAAGAGCUGAUGATT against Ezh2, inactive: -1.84.

Consider GGCUAGCUGCCCUUGUAUATT against Tmem128, for which the z-score was inactive: -0.894. Regarding GGCAGAUCUAUUUAUGGUATT against Ccer1, the z-score is inactive: 0.229. As for GGCAAUCAGGACGUAAAGUTT against Uhmk1, the figure is inactive: -1.75. As for GGUAGUCUUGACCCAAAAGTT against Gpr173, the figure is inactive: -1.18. As for CGAUAAAGGCCAAAUACUGTT against Ssb, the figure is inactive: 0.616; as for GGAUGAGUACACCUUUGUGTT against Chdh, inactive: 0.96. Take GGCUUAAUGUUGCUUCAGATT against Aven: the z-score is inactive: -0.959. Consider GCUGAUCCGAUACAUCGACTT against Cuedc2, for which the z-score is inactive: 1.21. Turning to GCCCUGAGUGGUUCAAUAATT against Tmem242, the z-score is inactive: -0.176. Turning to GGAAAAUUCCAGAAACCAUTT against Mettl8, the z-score is inactive: 0.608. For the sequence GGAACGAAUGUUCUUCGGUTT against Dst, the z-score is inactive: 0.378. GCGCAUACGAUAUGUGACCTT against H2-Ab1: the z-score is inactive: -0.311.

With CCUUGUAACUGAGGCCCGATT against Olfr120, the z-score was inactive: 1.2. For the sequence GGCCACAGGAAGUCAGUUATT against Gsk3b, the z-score was inactive: -1.23. With GGAUCAGUAGCAUUAACAATT against Tcf7l2 the figure was inactive: 0.414; with “GGCCUUUUAUUAGUGAGGGTT against 4932435O22Rik”, inactive: -1.92; with GGACACUUCCAAUGAGUCCTT against Chrm4, inactive: -0.869. On to GGGUUCAGCAAUUUCAGCATT against Zbtb49, for which the z-score is inactive: -0.629. As for CCGACAUUCGAGUUUUGCGTT against Rrp9, the z-score was inactive: -0.532.

Regarding GGAUCUCCUAAGUGUUCCCTT against Pnpo, the z-score is inactive: 1.58. As for CCUCAAGAUAAACCGACAATT against Bard1, the z-score is inactive: 0.388.

Regarding GCGGGCUGAAGAAGAAUUGTT against Ppp1r12c, the z-score was inactive: 0.0887.

Regarding CCGACAUGUGGACAAAUGATT against Tas2r117, the z-score was inactive: -1.62.

For the sequence CCUUACCACAGCCUCAAUGTT against Elfn2, the z-score is inactive: -0.227. GGGAAAAUACACUAUUUGATT against Atad2b: the z-score was inactive: 0.223. In the case of GGCUCUUCCGAGAACAUCCTT against Kcne4, the z-score is inactive: -0.132. With GGGACAUGGACAAUAAACCTT against Wnt10a, the z-score was inactive: -0.346. On to GGCUGAUAAGGCUAAGUACTT against Fam110a, for which the z-score is inactive: -0.121. As for GGGCAUGCGGAUCUUCUUATT against Sbp, the z-score was inactive: -0.474. Turning to GGAUGUGCUAAUGAGGCCATT against Tjp3, the z-score is inactive: -0.228. Consider GGAACACAGAGAAUGGCUCTT against Rnf126, for which the z-score is inactive: 1.02. As for GGGAUCCCGCAAAAUCAGATT against Osm, the figure is inactive: 0.63. As for GGAGCUUAGCCUCUGUAUGTT against Gatd3a, the figure is inactive: -0.86.

(Values after PubChem BioAssay AID1508600 (Functional Genomics Laboratory (NCATS/FGL), 2020).)
